# The other results are listed elsewhere or left out.
# Chains of the proteins cited; added tags and fusions are not shown. Lines headed by an entry give the natural chain unless they say otherwise; changes in a name come on top.
# UniProt Q5T280: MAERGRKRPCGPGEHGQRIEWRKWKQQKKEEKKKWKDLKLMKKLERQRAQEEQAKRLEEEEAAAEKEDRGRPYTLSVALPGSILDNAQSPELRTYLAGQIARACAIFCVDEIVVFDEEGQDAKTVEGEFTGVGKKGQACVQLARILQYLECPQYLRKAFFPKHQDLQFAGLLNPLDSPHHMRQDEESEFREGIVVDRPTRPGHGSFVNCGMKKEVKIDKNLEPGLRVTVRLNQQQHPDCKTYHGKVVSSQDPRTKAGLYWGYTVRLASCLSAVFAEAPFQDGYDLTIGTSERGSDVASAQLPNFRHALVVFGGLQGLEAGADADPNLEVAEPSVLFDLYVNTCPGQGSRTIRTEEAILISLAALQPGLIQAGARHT
# UniProt O95772: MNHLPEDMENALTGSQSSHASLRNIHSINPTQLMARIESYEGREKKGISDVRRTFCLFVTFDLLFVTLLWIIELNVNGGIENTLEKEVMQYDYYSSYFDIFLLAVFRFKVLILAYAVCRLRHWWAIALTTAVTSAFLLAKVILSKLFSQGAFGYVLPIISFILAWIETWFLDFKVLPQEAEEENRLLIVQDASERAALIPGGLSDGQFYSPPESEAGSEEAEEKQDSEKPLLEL
# UniProt Q9P2P6: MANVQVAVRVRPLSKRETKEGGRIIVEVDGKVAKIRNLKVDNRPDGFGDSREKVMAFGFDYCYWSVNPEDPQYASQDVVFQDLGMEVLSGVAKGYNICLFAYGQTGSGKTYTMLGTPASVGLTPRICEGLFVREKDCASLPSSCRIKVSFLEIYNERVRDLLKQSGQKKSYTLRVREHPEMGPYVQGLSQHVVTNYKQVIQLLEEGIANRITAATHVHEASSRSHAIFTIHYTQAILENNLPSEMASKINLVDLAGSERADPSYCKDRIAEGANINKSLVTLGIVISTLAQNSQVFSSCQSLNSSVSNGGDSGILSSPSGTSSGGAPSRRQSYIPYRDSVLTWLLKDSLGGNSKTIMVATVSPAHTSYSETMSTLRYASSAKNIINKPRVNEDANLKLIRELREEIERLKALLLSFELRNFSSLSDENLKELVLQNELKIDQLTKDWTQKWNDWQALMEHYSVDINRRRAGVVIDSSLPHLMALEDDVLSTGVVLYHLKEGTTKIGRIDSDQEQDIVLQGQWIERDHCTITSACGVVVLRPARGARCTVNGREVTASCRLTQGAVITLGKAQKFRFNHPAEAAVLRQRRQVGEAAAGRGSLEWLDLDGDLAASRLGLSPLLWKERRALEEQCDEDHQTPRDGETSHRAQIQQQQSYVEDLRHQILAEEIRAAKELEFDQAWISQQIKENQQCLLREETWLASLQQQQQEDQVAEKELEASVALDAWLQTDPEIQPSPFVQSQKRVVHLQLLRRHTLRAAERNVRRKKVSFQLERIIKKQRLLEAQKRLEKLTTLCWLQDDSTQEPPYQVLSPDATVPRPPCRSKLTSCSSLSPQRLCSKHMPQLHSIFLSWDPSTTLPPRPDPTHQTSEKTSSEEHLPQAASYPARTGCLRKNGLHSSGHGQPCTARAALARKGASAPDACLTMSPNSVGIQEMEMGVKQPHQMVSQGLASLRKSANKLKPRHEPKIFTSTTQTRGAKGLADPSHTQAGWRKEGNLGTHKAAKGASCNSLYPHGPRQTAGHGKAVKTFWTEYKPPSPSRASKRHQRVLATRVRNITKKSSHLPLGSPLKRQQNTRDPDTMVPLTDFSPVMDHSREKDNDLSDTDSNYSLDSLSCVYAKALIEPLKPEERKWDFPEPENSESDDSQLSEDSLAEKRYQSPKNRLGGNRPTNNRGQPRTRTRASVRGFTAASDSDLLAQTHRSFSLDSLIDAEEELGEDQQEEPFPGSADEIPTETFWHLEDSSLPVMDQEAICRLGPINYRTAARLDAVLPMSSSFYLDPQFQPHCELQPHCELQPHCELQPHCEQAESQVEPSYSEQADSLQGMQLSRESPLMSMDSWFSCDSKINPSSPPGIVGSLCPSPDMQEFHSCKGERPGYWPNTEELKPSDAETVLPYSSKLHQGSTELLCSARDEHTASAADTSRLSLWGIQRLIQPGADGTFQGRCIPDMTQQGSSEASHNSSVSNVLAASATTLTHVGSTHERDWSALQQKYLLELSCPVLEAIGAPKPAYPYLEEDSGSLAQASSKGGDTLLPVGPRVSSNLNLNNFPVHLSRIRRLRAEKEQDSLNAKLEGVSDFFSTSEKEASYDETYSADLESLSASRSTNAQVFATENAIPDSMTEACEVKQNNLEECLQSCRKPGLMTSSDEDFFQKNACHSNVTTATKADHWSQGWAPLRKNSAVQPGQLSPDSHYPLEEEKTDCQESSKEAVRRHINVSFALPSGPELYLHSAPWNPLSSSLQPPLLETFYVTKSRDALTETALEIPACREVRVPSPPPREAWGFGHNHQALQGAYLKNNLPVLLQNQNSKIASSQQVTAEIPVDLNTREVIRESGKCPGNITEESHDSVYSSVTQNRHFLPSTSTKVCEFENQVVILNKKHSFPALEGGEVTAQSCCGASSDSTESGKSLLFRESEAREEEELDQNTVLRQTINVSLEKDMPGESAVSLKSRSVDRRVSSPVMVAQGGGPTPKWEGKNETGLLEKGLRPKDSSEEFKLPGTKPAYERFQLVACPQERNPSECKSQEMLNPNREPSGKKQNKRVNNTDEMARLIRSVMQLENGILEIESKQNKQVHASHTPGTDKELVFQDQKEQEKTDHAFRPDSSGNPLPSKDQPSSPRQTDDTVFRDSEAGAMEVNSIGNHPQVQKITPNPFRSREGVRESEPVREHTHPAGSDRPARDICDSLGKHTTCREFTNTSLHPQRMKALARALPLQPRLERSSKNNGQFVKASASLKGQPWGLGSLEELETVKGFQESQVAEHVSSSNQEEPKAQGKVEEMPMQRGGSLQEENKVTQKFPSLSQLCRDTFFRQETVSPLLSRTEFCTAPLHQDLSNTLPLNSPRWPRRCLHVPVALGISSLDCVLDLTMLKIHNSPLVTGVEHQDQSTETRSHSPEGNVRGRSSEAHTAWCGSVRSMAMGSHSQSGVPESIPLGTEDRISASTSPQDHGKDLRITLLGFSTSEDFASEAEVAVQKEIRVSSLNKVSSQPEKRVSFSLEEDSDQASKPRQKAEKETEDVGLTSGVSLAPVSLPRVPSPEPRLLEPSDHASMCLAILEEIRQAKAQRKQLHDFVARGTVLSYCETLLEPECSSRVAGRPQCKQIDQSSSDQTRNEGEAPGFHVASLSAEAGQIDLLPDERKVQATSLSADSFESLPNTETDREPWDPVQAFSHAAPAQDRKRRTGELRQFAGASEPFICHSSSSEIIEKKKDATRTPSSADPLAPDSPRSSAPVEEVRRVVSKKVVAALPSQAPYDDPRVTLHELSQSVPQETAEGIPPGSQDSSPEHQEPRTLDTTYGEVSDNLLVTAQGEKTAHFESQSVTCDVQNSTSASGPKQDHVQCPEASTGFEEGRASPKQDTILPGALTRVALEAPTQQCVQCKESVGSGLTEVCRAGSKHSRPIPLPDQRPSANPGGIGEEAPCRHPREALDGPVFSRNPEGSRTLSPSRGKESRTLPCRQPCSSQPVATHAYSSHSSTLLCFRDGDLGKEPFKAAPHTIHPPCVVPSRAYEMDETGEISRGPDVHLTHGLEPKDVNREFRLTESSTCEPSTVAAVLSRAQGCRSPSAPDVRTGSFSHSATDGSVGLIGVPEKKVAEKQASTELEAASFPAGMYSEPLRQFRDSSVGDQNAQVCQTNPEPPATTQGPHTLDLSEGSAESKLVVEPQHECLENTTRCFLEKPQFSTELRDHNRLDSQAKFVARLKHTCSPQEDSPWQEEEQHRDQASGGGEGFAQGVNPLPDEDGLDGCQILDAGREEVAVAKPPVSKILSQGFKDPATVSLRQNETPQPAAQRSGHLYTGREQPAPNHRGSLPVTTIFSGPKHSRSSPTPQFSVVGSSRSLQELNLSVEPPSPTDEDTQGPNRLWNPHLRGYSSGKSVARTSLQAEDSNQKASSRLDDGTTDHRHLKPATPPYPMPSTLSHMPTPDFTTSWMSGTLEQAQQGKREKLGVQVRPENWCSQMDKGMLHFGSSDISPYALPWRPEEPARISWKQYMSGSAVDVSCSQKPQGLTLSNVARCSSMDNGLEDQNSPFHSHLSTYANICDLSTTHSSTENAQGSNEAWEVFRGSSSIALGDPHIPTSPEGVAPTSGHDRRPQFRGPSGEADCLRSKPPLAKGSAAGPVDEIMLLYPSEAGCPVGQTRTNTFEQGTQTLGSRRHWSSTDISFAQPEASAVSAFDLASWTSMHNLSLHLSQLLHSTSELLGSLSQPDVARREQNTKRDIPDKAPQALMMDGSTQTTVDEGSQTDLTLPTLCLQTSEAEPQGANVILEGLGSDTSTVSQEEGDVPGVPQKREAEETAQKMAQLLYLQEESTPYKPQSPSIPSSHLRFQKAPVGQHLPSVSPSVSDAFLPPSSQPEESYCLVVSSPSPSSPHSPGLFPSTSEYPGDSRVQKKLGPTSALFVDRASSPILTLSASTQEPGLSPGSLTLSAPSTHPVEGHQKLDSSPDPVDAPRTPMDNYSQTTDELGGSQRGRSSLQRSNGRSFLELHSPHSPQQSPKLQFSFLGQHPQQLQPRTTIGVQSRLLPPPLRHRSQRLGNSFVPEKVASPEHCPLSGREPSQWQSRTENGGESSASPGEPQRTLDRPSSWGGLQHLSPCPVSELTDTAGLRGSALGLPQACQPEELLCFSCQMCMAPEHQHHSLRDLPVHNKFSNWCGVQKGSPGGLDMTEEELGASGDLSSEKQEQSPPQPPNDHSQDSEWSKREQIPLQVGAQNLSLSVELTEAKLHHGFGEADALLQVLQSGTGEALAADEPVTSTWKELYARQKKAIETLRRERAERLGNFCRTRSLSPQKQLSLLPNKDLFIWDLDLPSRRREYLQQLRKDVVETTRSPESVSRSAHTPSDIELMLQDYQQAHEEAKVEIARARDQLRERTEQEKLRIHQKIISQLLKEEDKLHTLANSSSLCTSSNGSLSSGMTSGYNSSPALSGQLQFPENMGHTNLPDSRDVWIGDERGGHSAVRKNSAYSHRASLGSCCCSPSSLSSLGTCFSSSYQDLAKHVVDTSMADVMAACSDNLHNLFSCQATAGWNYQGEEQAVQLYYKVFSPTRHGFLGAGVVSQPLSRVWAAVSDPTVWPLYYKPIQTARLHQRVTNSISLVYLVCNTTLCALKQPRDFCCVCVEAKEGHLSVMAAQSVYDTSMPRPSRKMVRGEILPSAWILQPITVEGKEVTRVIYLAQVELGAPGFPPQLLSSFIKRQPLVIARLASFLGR
# UniProt O95630, whole entry, looked up: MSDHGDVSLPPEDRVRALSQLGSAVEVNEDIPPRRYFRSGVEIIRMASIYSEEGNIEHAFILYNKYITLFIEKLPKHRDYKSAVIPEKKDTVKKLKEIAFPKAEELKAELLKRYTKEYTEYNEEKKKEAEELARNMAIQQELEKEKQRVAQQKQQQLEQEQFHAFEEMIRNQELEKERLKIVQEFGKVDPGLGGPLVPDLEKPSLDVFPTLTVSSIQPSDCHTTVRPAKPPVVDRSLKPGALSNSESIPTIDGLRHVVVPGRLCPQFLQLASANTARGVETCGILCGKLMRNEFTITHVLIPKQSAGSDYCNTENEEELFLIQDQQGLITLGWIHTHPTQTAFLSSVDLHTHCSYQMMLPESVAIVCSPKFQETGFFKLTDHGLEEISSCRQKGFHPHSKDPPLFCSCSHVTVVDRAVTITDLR
# UniProt Q9NUQ6: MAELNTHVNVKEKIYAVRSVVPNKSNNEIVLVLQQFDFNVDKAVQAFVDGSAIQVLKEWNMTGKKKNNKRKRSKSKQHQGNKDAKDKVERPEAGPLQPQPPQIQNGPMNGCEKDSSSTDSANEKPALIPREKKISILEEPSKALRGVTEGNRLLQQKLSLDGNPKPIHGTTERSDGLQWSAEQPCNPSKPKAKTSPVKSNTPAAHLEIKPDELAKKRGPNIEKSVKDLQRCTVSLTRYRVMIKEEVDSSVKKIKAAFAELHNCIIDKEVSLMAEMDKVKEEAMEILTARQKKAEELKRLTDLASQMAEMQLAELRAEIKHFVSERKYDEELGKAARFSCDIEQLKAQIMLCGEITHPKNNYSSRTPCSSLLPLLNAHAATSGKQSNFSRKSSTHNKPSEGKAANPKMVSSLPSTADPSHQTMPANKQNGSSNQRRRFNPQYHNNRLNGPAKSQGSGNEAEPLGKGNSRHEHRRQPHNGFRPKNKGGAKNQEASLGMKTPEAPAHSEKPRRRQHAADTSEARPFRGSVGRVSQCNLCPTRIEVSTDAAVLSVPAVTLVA
# UniProt P49675, whole entry, looked up: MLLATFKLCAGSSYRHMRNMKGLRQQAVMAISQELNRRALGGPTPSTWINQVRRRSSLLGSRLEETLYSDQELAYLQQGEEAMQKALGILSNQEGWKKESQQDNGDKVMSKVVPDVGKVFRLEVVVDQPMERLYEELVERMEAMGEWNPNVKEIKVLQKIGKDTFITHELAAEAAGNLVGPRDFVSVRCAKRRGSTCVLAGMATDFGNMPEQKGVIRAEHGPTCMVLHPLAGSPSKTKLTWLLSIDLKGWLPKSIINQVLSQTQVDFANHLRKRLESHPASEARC
# Compound: NCC(=O)Nc1ccc(-n2nc(C(F)(F)F)cc2-c2ccc3c(ccc4ccccc43)c2)cc1
# Assay: log2 fold change, soluble protein after heating vs DMSO (PISA); higher = thermal stabilisation; K562 lysate, 10 uM; active = over 0.2 and 3.5 SD of the protein, either way, in both replicates (recomputed)
# Outline: (§1)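 Quantification was by TMTpro 16plex LC-MS/MS with equalised channel sums, applied to the supernatant after 21,000xg for 90 min. Samples were crude K562 extract at 1 mg/mL protein in PBS pH 7.4 with 1 mM MgCl2, treated with 10 μM compound for 30 min, heated for 3 min across 48°C-58°C, pooled and brought to 0.5% NP-40 at 4°C. Values are log-two fold changes in thermal stability relative to solvent controls, from duplicates.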
row,Target,log2 fold change
1,STEAP3 isoform 2 (UniProt Q658P3),inactive: -0.02
2,STAT3 isoform 2 (UniProt P40763),inactive: 0.021
3,SPOUT1 (UniProt Q5T280),inactive: 0.025
4,SRSF7 (UniProt Q16629),inactive: 0.02
5,SPTAN1 (UniProt Q13813),inactive: 0.001
6,SSX2 (UniProt Q16385),inactive: 0.03
7,STARD3NL (UniProt O95772),inactive: -0.015
8,SPATS2 (UniProt Q86XZ4),inactive: -0.047
9,SPG21 (UniProt Q9NZD8),inactive: -0.035
10,STARD9 (UniProt Q9P2P6),inactive: 0.155
11,STAMBP (UniProt O95630),inactive: -0.043
12,SSU72 (UniProt Q9NP77),inactive: 0.015
13,SPINDOC (UniProt Q9BUA3),inactive: 0.082
14,SPIRE1 (UniProt Q08AE8),inactive: 0.092
15,SSBP4 (UniProt Q9BWG4),inactive: -0.045
16,SPATA33 isoform 2 (UniProt Q96N06),inactive: -0.149
17,ST3GAL4 isoform 4 (UniProt Q11206),inactive: 0.026
18,ST6GALNAC1 (UniProt Q9NSC7),inactive: 0.002
19,SPATS2L isoform 2 (UniProt Q9NUQ6),inactive: -0.088
20,SPATA7 (UniProt Q9P0W8),inactive: 0.296
21,SPG11 (UniProt Q96JI7),inactive: -0.001
22,STAR (UniProt P49675),inactive: 0.002
23,SRP9 (UniProt P49458),inactive: -0.048

# Compound: O=C(CCCCCCC(=O)Nc1ccccc1)NO [vorinostat]
# Assay: as above
# Outline: as §1
row,Target,log2 fold change
1,STAT3 isoform 2 (UniProt P40763),inactive: -0.135
2,SPOUT1 (UniProt Q5T280),inactive: -0.195
3,SRSF7 (UniProt Q16629),inactive: 0.134
4,SREK1IP1 (UniProt Q8N9Q2),inactive: 0.009
5,SPTAN1 (UniProt Q13813),inactive: 0.087
6,SSX2 (UniProt Q16385),inactive: -0.017
7,SPTY2D1 (UniProt Q68D10),inactive: -0.007
8,STARD3NL (UniProt O95772),inactive: 0.095
9,SPATS2 (UniProt Q86XZ4),active: -0.507
10,SPG21 (UniProt Q9NZD8),inactive: 0.014
11,STARD9 (UniProt Q9P2P6),inactive: -0.093
12,STAMBP (UniProt O95630),inactive: 0.063
13,SSU72 (UniProt Q9NP77),inactive: 0.112
14,SPINDOC (UniProt Q9BUA3),inactive: 0.041
15,SPIRE1 (UniProt Q08AE8),inactive: 0.15
16,SPINT1 (UniProt O43278),inactive: 0.121
17,ST3GAL4 isoform 4 (UniProt Q11206),inactive: 0.088
18,STAG1 (UniProt Q8WVM7),inactive: 0.087
19,SS18L1 (UniProt O75177),inactive: -0.065
20,ST6GALNAC1 (UniProt Q9NSC7),inactive: 0.05
21,SPATS2L isoform 2 (UniProt Q9NUQ6),inactive: 0.052
22,SPATA7 (UniProt Q9P0W8),inactive: 0.21
23,SPG11 (UniProt Q96JI7),active: -0.399
24,STAU1 isoform 3 (UniProt O95793),inactive: -0.076
25,STAP1 (UniProt Q9ULZ2),inactive: -0.299
26,STAR (UniProt P49675),inactive: -0.044
27,SPTBN1 isoform 3 (UniProt Q01082),inactive: -0.012
28,SRP9 (UniProt P49458),inactive: -0.071

# Compound: O=C(O)c1ccc2c(c1)nc(Nc1cccc(Cl)c1)c1ccncc12 [silmitasertib]
# Assay: as above
# Outline: as §1
row,Target,log2 fold change
1,STAT3 isoform 2 (UniProt P40763),inactive: 0.016
2,SPOUT1 (UniProt Q5T280),inactive: 0.051
3,SRSF7 (UniProt Q16629),inactive: -0.052
4,SREK1IP1 (UniProt Q8N9Q2),inactive: -0.01
5,SPTAN1 (UniProt Q13813),inactive: 0.001
6,SSX2 (UniProt Q16385),inactive: -0.004
7,SPTY2D1 (UniProt Q68D10),inactive: -0.007
8,STARD3NL (UniProt O95772),inactive: 0.059
9,SPATS2 (UniProt Q86XZ4),inactive: 0.002
10,SPG21 (UniProt Q9NZD8),inactive: -0.026
11,STARD9 (UniProt Q9P2P6),inactive: -0.004
12,STAMBP (UniProt O95630),inactive: -0.002
13,SSU72 (UniProt Q9NP77),inactive: -0.026
14,SPINDOC (UniProt Q9BUA3),inactive: 0.003
15,SPIRE1 (UniProt Q08AE8),inactive: -0.02
16,SPINT1 (UniProt O43278),inactive: -0.063
17,ST3GAL4 isoform 4 (UniProt Q11206),inactive: 0.046
18,STAG1 (UniProt Q8WVM7),inactive: 0.107
19,SS18L1 (UniProt O75177),inactive: -0.013
20,ST6GALNAC1 (UniProt Q9NSC7),inactive: -0.001
21,SPATS2L isoform 2 (UniProt Q9NUQ6),inactive: -0.023
22,SPATA7 (UniProt Q9P0W8),inactive: -0.091
23,SPG11 (UniProt Q96JI7),inactive: 0.062
24,STAU1 isoform 3 (UniProt O95793),inactive: -0.103
25,STAP1 (UniProt Q9ULZ2),inactive: 0.142
26,STAR (UniProt P49675),inactive: -0.028
27,SPTBN1 isoform 3 (UniProt Q01082),inactive: 0.204
28,SRP9 (UniProt P49458),inactive: 0.023

# From the supplement of paper PMC10849652
